# Test results as given in paper PMC9774241, “Associating Biological Activity and Predicted Structure of Antimicrobial Peptides from Amphibians and Insects” (Antibiotics, 2022).
# Test system: Escherichia coli ATCC 25922
# Assay type: cell-based
# Details: ratio of the toxicity to the MIC; range; N/O = no observed antimicrobial activity
# Description: Bacteria were grown overnight at 37 °C in Mueller-Hinton Broth (MHB; Sigma-Aldrich, St. Louis. MO, USA) in a shaking incubator and aliquoted into cryovials with a 50% glycerol solution in a 1:1 ratio. No additives were added to the MHB during the growth of bacterial isolates. Glycerol stocks were stored at −80 °C.
# The antimicrobial activity of the putative AMPs was determined by a broth microdilution assay as described by the Clinical and Laboratory Standards Institute, with the published adaptations for testing of cationic peptides. Escherichia coli 25922 and Staphylococcus aureus 29213 isolates were purchased from the American Type Culture Collection (ATCC; Manassas, VA, USA). A human clinical isolate of Salmonella enterica serovar Enteritidis was provided by the BC Centre for Disease Control. Bacteria from stocks stored at −80 °C were streaked onto nonselective Columbia blood agar with 5% sheep blood (Oxoid) and incubated overnight at 37 °C. Next, 2–4 colonies were streaked onto a new agar plate to ensure uniform health of colonies used in the broth microdilution assay. Isolated colonies were suspended in MHB and the optical density was measured with a spectrophotometer to create an initial inoculum concentration of approximately 1 × 10^8 cfu/mL. The inoculum was diluted 1:250 to a final concentration of 2–8 × 10^5 cfu/mL, which was confirmed by performing a Total Viability Count (TVC). The TVC consisted of plating a 1:1000 dilution of the final inoculum on nonselective media and was also used to confirm the health and purity of the inoculum in each trial.
# Lyophilized 80 µg peptide aliquots synthesized by GenScript (Piscataway, NJ, USA) were resuspended to 1.28 mg/mL with UltraPure water (Thermo Fisher Scientific, Waltham, MA, USA) and serially diluted in polypropylene 96-well microtiter plates (Greiner Bio-One #650261, Kremsmünster, Austria) from 128 down to 0.5 µg/mL. […] The minimum inhibitory concentration (MIC) was determined as the lowest peptide concentration where there was no visible bacterial growth.
row,Sequence,"Selectivity Index, E. coli ATCC 25922"
1,GAFVLWGPTPRPRRR [DiLo1],> 1
2,GILRLVTRRFRFSPTNLNRYTVARLVSGVP [BoAr6],> 4
3,RRAIFASIRGYLGLRKR [MyGu1],> 32

# No end group written: not given here.
